According to patent publication US20230272086A1:

Molecular target: ST2 (coated antigen of the cross-reactivity ELISA, Table 20) (human)
Experiment: ELISA, plate coated with ST2

B1: Humanized 31C8-1.1 (antibody, human IgG2, kappa, V domains shown)
VH: EVQLVQSGAEVKKPGATVKISCKASGYIFIDSEMHWVQQAPGKGLEWMGAIDPETGDTVYAEKFQGRVTITADKSSSTAYMELSSLRSEDTAVYYCTGSTTDYYFAYWGQGTLVTVSS
VL: DIQMTQSPSSLSASVGDRVTITCRSSKSLLHSNGIIYLYWYQQKPGKAPKLLIYQLSNLASGVPSRFSSSGSGTDFTLTISSLQPEDFATYYCAQNLELPFTFGQGTKVEIKR
binding: binds

B2: Humanized 31C8-1.2 (antibody, human IgG2, kappa, V domains shown)
VH: B1 VH with E1Q, E10K, E62K, Q65K
VL: B1 VL
binding: binds

B3: Chimeric 31C8 (antibody, human IgG2, kappa, V domains shown)
VH: QVQLQQSGPELVRPGASVTLSCKASGYIFIDSEMHWVKQTPVHGLEWIGAIDPETGDTVYNQKFKGKATLTADKSSSTASMELSSLTSEDSAVYYCTGSTTDYYFAYWGQGTTLTVSS
VL: DIVMTQAAFSNPVTLGTSASISCRSSKSLLHSNGIIYLYWYLQKPGQSPQLLIYQMSNLASGVPDRFSSSGSGTDFTLRISRVEAEDVGVYYCAQNLELPFTFGSGTKLEIKR
binding: binds

B4: GSK3772847 (antibody STLM208 in CN104411333, prepared in-house) (antibody, human IgG2, kappa, V domains shown)
VH: EVQLLESGGGLVQPGGSLRLSCAASGFTFSIYDMIWVRQAPGKGLEWVSSIRGEGGGTYYADSVKGRFTISRDNSKNTLYLQMNSLRAEDTAVYYCARDPWSTEGSFFVLDYWGQGTLVTVSS
VL: EIVLTQSPATLSLSPGERATLSCRASQSVDDDLAWYQQKPGQAPRLLIYDASNRATGIPARFSGSGSGTDFTLTISSLEPEDFAVYYCQQYITAPLTFGQGTKVEIKR
binding: binds

Positions count from the first letter of the chain named. These are yes or no findings as the source states them, for the method shown. Binding can be weak; no strength is given.
